Assay results published in PubChem BioAssay AID493014 (National Center for Advancing Translational Sciences (NCATS), 2011).
The other results are listed elsewhere or left out. These are further read-outs of the screen, such as a control signal, another cell line or another target. No call is given for them. Compounds called inactive in the main read-out are mostly missing here. Words in brackets tell the shape of the fitted curve; partial curves, single points and poor fits give uncertain potencies.

Assay: qHTS Assay to Find Inhibitors of Chronic Active B-Cell Receptor Signaling
Conditions: ABC-DLBCL IkBa-CBG/CBR reporter, luminescence ratio (green luciferase fused to IkBa over red control in TMD8 lymphoma cells), 4 h
How it was run: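 Doxycycline induced both beetle luciferases in TMD8 lymphoma cells; IKK-driven degradation limits the IkappaBalpha-fused green signal, while red luminescence normalises for cell number and nonspecific effects. Compounds tested up to 46 uM, 4 hrs.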

[1] = measured here: CBR red luminescence, cell number
[2] = measured here: IkBa-CBG green luminescence

**Q.** Which AC50 [1] does the source give for `COc1cccc(-c2ccnc3[nH]n(-c4ccccc4)c(=O)c23)c1` here?
**A.** 2.82 µM [falling, full curve, poor fit]

**Q.** With `CCOC(=O)c1[nH]c2c(c1C)C(=O)CC(c1ccc(F)cc1)C2` (stereo unspecified) as the compound, how does the AC50 [1] read?
**A.** 7.31 µM [rising, partial curve, poor fit]

**Q.** What about the AC50 [2] of the same compound?
**A.** 6.51 µM [falling, partial curve]

**Q.** Which AC50 [1] does the source give for `Cc1ccc(CNC(=O)CN2CCCC(C)C2)cc1` (stereo unspecified) here?
**A.** 6.51 µM [rising, partial curve, poor fit]

**Q.** Which AC50 [1] does the source give for `Cc1cccc(N(Cc2cc3ccccc3[nH]c2=O)S(C)(=O)=O)c1` here?
**A.** 35.5 µM [falling, single point]

**Q.** With `C=CCn1c(CCNC(=O)c2cccs2)nnc1SCC(=O)Nc1cccc(F)c1` as the compound, how does the AC50 [1] read?
**A.** 2.06 µM [rising, partial curve, poor fit]

**Q.** Which AC50 [1] does the source give for `CC(C)CC(/C(O)=C(\C#N)c1nc2ccccc2[nH]1)N1C(=O)c2ccccc2C1=O` (stereo unspecified) here?
**A.** 20.6 µM [falling, partial curve, poor fit]

**Q.** Which AC50 [1] does the source give for `Cc1ccc(NC(=S)NCCC2=CCCCC2)cc1` here?
**A.** 4.47 µM [rising, full curve, poor fit]

**Q.** Which AC50 [1] does the source give for `CCOC(=O)C(=O)Nc1ccccc1C(=O)Nc1ccc(OC)cc1` here?
**A.** 29.1 µM [falling, single point]

**Q.** For `NC(=O)[C@H]1CC2(CC(c3cccc(NC(=O)COc4ccc(Cl)cc4)c3)=NO2)CN1C(=O)Cc1ccc([N+](=O)[O-])cc1` (stereo partly specified), which AC50 [1] is on record?
**A.** 10 µM [falling, partial curve, poor fit]

**Q.** For `Cc1cc(C)c2cc(CN(CCN3CCCC3)C(=O)Nc3ccc(F)cc3)c(=O)[nH]c2c1`, which AC50 [1] is on record?
**A.** 22.4 µM [falling, single point]

**Q.** With `Cc1cccc(Nc2nc(-c3c(C)nc4ccccn34)cs2)c1` as the compound, how does the AC50 [1] read?
**A.** 15.8 µM [falling, partial curve, poor fit]

**Q.** Which AC50 [1] does the source give for `O=C(COc1ccc2ccccc2c1)Nc1ccccc1C(=O)O` here?
**A.** 0.316 µM [falling, full curve]

**Q.** For `COc1ccc(CC(=O)Nc2cc(NC(=O)Cc3ccc(OC)c(OC)c3)cc(C(=O)O)c2)cc1OC`, which AC50 [1] is on record?
**A.** 22.4 µM [rising, partial curve, poor fit]

**Q.** For `O=C(Cn1cc(SCc2ccc(F)cc2)c2ccccc21)N1CCOCC1`, which AC50 [1] is on record?
**A.** 25.9 µM [falling, single point]

**Q.** For `O=C(N/C=C/c1ccco1)Nc1cccc(Cl)c1`, which AC50 [1] is on record?
**A.** 0.708 µM [rising, full curve, poor fit]

**Q.** For `Cc1cc(C(=O)N/N=C/c2ccc(N3CCOCC3)cc2)c(C)o1`, which AC50 [1] is on record?
**A.** 14.1 µM [falling, partial curve]

**Q.** For `O=c1c2ccccc2cnn1Cc1n[nH]c(=S)n1-c1ccccc1Cl`, which AC50 [1] is on record?
**A.** 32.6 µM [rising, single point]

**Q.** For `Fc1ccc(/C=N/NC(=S)Nc2ccc(Cl)cc2Cl)cc1`, which AC50 [1] is on record?
**A.** 20 µM [rising, single point]

**Q.** For `Cc1c(Cl)c([N+](=O)[O-])nn1CC(=O)N1CCc2ccccc2C1`, which AC50 [1] is on record?
**A.** 11.2 µM [falling, partial curve, poor fit]

**Q.** With `O=C1CC(Cc2ccc(Cl)cc2)C(=O)N1c1cc(Cl)ccn1` (stereo unspecified) as the compound, how does the AC50 [1] read?
**A.** 4.47 µM [rising, partial curve, poor fit]

**Q.** Which AC50 [1] does the source give for `Cc1[nH]c(=O)[nH]c(=O)c1/C=N/NC(=O)[C@H](CC(C)C)NC(=O)OC(C)(C)C` here?
**A.** 29.1 µM [falling, single point]

**Q.** Which AC50 [1] does the source give for `Cn1c(=O)c2c(nc(SCc3ccccc3F)n2C)n(C)c1=O` here?
**A.** 3.55 µM [falling, partial curve]

**Q.** With `COc1cc(N)ccc1NC(=O)c1cc2ccccc2o1` as the compound, how does the AC50 [1] read?
**A.** 35.5 µM [falling, single point]

**Q.** With `Cc1cccc(CN2C(=O)/C(=C\c3ccc(C(=O)NCCN4CCOCC4)cc3)Sc3ccccc32)c1` as the compound, how does the AC50 [1] read?
**A.** 1.26 µM [rising, full curve]

**Q.** Which AC50 [1] does the source give for `CCNC(=O)CN(c1ccc(C)cc1)S(=O)(=O)c1ccccc1` here?
**A.** 23.1 µM [rising, single point]

**Q.** With `CCS(=O)(=O)Nc1ccc(C2=NN(C(=O)c3ccco3)C(c3ccc(C)cc3)C2)cc1` (stereo unspecified) as the compound, how does the AC50 [1] read?
**A.** 8.91 µM [falling, partial curve, poor fit]

**Q.** With `O=C1c2ccccc2C(=O)N1/N=C/c1ccc(O)c(O)c1` as the compound, how does the AC50 [1] read?
**A.** 20.6 µM [falling, single point]

**Q.** With `O=C(c1cc(-c2cccs2)on1)N1CCc2ccccc2C1` as the compound, how does the AC50 [1] read?
**A.** 14.6 µM [falling, single point]

**Q.** For `CCN1C(=O)[C@H]2[C@@H](c3ccc(-c4cccc(Cl)c4)c(OC)c3)N[C@@](Cc3ccccc3)(C(=O)OC)[C@H]2C1=O`, which AC50 [2] is on record?
**A.** 6.51 µM [rising, partial curve, poor fit]

**Q.** For `Cc1[nH]n(-c2nc(-c3cccc([N+](=O)[O-])c3)cs2)c(=O)c1C`, which AC50 [1] is on record?
**A.** 32.6 µM [falling, single point]

**Q.** With `COc1ccc(OC)c(N/C=C/C(=O)c2ccc(OC)c(OC)c2)c1` as the compound, how does the AC50 [1] read?
**A.** 5.62 µM [rising, full curve]

**Q.** With `CCOC(=O)c1[nH]c(C)c(C(=O)N2CCc3ccccc32)c1C` as the compound, how does the AC50 [1] read?
**A.** 10 µM [rising, partial curve]

**Q.** What about the AC50 [2] of the same compound?
**A.** 5.62 µM [falling, partial curve]

**Q.** Which AC50 [1] does the source give for `N#Cc1c(/N=C/c2ccccc2)oc(-c2ccccc2)c1-c1ccccc1` here?
**A.** 32.6 µM [falling, partial curve, poor fit]

**Q.** Which AC50 [1] does the source give for `O=C(O)CCN1C(=O)/C(=C/c2ccc(-c3nc4ccccc4s3)o2)SC1=S` here?
**A.** 0.891 µM [falling, full curve]

**Q.** For `CCOC(=O)Cc1[nH]nc2c1C(c1ccsc1)C(C#N)=C(N)O2` (stereo unspecified), which AC50 [1] is on record?
**A.** 20 µM [falling, single point]

**Q.** For `COc1ccc(-c2c(C)nn3c(NC4CCCC4)cc(C)nc23)cc1OC`, which AC50 [1] is on record?
**A.** 6.31 µM [falling, full curve]

**Q.** With `Cc1ccccc1CS(=O)(=O)c1nnc([C@H](Cc2ccccc2)NC(=O)OC(C)(C)C)o1` as the compound, how does the AC50 [1] read?
**A.** 3.26 µM [falling, partial curve, poor fit]

**Q.** For `Cc1ccc(NC(=O)CSc2cn[nH]n2)cc1`, which AC50 [1] is on record?
**A.** 11.2 µM [falling, partial curve]

**Q.** With `Cc1sc(NC(=O)CSc2nnc3scc(-c4ccccc4)n23)c(C#N)c1C` as the compound, how does the AC50 [1] read?
**A.** 0.103 µM [falling, full curve, poor fit]
